In the supplement of paper PMC12819154, “High-throughput peptide-centric local stability assay extends protein–ligand identification to membrane proteins, tissues and bacteria” (Nature Structural & Molecular Biology, 2025) one finds log2 fold change data, which are given here for 32 targets.

Chains of the proteins cited; added tags and fusions are not shown. Lines headed by an entry give the natural chain unless they say otherwise; changes in a name come on top.
UniProt P45551: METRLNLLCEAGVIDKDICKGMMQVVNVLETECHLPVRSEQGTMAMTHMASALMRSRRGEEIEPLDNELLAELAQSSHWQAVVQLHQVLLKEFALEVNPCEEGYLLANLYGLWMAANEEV
UniProt P52627: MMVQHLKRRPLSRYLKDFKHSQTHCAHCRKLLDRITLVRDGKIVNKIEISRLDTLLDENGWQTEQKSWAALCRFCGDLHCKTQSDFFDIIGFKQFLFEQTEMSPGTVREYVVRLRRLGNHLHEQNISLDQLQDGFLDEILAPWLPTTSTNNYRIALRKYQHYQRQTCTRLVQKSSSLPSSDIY
UniProt P45756: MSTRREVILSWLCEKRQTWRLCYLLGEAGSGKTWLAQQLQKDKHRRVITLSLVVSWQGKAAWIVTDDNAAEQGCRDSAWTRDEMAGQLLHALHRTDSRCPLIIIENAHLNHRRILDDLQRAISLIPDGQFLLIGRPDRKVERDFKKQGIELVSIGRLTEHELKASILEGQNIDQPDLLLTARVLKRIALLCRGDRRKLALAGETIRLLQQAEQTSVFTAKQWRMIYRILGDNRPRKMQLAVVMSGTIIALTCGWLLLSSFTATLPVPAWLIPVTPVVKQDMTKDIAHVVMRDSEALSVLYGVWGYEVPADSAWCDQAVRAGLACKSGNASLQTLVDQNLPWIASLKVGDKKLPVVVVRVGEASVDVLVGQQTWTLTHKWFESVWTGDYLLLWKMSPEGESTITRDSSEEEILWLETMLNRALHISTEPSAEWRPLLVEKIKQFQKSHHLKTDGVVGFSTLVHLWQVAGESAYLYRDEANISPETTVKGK
UniProt P52613: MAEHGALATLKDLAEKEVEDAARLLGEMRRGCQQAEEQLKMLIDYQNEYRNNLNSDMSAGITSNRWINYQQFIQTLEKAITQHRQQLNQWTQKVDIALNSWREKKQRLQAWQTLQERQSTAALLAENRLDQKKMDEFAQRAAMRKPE
UniProt P45800: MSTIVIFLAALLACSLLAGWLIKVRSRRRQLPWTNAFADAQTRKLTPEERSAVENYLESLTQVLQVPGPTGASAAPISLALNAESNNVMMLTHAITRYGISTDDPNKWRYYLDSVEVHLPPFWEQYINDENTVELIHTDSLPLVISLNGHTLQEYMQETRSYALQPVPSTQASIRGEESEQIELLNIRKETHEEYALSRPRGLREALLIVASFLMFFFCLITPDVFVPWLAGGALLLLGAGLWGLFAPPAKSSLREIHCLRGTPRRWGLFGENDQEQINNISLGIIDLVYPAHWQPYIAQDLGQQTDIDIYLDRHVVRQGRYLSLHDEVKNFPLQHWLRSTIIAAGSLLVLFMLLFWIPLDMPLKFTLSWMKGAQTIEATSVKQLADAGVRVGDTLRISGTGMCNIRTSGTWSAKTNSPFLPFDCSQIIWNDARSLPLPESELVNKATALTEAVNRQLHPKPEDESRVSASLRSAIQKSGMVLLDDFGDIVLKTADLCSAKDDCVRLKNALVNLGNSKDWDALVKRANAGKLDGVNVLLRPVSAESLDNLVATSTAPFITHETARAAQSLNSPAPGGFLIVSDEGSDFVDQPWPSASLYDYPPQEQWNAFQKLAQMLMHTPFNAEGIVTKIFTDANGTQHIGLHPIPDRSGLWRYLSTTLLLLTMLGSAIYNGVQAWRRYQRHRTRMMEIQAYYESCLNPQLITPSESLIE
UniProt P56256: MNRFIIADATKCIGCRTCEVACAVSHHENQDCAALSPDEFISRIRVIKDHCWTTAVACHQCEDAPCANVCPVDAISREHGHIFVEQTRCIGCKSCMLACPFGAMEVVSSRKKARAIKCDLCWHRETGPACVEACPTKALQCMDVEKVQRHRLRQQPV
UniProt P39347: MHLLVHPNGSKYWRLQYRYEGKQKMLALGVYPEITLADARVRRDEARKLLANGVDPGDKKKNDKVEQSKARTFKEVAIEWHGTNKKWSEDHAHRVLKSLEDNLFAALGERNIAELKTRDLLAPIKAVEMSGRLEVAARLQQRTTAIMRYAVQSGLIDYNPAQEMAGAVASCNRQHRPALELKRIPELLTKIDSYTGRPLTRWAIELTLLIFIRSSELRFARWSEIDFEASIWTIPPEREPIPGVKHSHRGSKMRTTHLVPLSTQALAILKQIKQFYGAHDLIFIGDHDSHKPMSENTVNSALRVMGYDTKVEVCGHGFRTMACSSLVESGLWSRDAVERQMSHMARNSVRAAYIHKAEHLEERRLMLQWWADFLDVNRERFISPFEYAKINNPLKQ
UniProt P52636: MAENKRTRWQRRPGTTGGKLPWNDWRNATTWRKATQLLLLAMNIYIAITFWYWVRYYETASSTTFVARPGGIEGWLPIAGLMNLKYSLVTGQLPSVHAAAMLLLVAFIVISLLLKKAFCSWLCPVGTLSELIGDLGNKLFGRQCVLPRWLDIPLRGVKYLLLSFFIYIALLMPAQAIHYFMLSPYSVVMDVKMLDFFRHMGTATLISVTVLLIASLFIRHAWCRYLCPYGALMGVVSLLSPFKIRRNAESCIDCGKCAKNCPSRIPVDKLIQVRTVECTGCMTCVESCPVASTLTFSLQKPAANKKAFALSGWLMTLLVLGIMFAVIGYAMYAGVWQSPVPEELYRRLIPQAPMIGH
UniProt P52096: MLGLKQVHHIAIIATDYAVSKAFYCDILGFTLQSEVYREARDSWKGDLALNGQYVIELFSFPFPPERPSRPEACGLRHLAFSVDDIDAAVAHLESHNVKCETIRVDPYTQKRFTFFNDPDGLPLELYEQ
UniProt P58035: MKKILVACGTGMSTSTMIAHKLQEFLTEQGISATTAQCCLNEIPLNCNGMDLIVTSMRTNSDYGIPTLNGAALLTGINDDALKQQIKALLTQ
UniProt P40710: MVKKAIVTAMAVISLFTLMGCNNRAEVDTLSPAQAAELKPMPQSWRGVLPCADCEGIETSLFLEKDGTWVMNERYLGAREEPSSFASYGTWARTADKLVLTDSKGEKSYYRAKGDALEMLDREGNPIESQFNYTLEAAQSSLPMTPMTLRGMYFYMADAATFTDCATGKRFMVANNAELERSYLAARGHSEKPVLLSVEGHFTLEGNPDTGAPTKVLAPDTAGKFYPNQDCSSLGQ
UniProt P66948: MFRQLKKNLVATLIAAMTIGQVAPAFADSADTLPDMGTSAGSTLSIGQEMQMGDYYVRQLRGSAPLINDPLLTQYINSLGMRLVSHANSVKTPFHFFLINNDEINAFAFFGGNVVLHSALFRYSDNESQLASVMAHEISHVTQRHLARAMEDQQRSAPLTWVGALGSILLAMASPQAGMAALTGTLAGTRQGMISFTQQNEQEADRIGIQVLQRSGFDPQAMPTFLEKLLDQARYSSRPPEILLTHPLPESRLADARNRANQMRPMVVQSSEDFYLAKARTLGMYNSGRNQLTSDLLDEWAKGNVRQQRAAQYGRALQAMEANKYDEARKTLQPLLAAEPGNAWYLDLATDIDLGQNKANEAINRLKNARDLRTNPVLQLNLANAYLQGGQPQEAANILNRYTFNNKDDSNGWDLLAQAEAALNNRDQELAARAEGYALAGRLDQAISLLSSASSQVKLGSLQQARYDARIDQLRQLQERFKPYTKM
UniProt P46118: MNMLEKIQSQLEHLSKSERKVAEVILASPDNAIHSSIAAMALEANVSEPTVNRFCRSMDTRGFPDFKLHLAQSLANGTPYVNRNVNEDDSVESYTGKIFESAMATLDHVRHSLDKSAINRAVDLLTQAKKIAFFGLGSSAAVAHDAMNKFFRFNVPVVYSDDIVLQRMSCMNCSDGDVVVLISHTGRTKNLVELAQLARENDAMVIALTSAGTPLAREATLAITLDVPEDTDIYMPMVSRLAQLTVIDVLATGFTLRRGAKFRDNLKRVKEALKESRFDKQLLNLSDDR
UniProt P43319: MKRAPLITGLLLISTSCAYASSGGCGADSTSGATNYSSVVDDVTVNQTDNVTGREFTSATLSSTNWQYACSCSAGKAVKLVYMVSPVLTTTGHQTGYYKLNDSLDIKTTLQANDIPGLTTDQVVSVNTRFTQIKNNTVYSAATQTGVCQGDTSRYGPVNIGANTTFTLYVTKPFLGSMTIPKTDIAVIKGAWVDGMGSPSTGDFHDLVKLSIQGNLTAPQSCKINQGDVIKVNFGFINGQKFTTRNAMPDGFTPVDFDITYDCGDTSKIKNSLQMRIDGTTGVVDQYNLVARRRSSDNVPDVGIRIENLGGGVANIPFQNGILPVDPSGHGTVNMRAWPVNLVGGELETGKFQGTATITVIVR
UniProt P52097: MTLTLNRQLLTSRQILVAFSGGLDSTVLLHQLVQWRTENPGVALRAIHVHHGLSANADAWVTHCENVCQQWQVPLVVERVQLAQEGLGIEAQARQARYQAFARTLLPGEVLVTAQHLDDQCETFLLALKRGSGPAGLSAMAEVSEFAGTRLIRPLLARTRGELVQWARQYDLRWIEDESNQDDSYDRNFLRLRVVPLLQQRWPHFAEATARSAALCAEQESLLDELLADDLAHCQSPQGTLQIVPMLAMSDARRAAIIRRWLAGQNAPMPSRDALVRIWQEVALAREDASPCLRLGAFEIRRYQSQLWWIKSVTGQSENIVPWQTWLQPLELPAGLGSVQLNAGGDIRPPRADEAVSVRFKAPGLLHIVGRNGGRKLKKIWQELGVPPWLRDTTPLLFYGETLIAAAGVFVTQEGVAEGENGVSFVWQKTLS
UniProt P52052: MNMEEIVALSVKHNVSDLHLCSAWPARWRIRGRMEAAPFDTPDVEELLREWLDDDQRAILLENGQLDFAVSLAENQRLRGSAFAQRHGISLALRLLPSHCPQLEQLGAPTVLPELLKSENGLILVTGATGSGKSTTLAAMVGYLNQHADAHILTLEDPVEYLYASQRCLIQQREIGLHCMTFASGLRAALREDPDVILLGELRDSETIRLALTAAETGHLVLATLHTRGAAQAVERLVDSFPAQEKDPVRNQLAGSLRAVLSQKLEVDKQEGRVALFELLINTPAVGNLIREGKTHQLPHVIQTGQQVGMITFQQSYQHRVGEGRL
UniProt P46890: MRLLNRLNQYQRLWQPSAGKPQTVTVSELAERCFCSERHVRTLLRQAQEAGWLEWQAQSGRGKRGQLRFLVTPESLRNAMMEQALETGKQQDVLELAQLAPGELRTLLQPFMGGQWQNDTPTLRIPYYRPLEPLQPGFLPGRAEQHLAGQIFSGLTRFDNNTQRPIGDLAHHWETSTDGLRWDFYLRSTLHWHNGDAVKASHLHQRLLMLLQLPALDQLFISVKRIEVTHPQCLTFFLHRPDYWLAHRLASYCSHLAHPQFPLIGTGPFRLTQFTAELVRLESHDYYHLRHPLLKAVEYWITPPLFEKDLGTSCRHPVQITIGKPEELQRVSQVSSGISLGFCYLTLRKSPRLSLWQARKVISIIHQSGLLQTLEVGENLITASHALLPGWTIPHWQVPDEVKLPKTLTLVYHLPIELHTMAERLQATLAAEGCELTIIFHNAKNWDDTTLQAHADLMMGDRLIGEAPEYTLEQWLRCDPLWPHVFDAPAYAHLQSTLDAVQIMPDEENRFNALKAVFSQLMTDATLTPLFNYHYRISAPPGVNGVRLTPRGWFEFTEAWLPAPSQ
UniProt P46854: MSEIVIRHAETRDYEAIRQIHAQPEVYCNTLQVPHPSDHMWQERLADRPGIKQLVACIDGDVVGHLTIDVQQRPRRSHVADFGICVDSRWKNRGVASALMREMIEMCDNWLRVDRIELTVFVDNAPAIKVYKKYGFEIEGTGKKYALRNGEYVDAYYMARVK
UniProt P39391: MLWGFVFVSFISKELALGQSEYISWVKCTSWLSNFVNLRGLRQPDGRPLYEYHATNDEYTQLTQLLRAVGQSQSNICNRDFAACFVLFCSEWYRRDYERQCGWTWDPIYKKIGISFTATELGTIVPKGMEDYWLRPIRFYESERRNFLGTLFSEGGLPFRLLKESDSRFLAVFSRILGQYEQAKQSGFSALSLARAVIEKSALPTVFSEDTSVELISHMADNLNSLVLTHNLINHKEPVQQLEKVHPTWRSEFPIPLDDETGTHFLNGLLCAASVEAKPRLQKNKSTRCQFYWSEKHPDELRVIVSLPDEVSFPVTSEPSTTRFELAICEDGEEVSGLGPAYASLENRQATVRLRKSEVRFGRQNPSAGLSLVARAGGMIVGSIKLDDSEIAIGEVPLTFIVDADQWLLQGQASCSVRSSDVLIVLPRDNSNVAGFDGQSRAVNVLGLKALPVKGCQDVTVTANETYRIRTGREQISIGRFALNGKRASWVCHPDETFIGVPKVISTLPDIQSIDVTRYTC
UniProt P63201: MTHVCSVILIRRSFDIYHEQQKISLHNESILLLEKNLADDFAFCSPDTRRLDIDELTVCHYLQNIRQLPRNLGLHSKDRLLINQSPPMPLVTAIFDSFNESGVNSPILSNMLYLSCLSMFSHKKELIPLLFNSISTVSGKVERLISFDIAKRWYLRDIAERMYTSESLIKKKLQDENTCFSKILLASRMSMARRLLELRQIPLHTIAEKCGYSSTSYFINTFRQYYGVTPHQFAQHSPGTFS
UniProt P45424: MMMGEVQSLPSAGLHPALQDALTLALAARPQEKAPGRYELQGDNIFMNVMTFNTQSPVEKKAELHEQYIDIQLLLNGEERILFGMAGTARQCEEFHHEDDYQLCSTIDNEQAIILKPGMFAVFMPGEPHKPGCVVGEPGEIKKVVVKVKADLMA

Only a part is listed here, and it is no random draw. Most values lie at the level of the controls, where differences are scatter.
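Further: lysate desalted by size exclusion to strip endogenous ATP, peptide intensities built from DIA-NN precursor signals, and peptides missing any value discarded before comparison.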

Compound in this assay: Nc1ncnc2c1ncn2[C@@H]1O[C@H](COP(=O)(O)OP(=O)(O)OP(=O)(O)O)[C@@H](O)[C@H]1O [adenosine 5'-triphosphate]
As to the kind of experiment: log2 fold change of tryptic peptide abundance, ligand vs vehicle (limited proteolysis) (log2 ratio); higher = more trypsin-susceptible (destabilized). The settings on record: ligand concentration: 5 mM; sample: E. coli desalted lysate; replicate design: treated before aliquoting. On the procedure: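 HT-PELSA: desalted E. coli K-12 BW25113 lysate (with 12 mM MgCl2) incubated with 5 mM ATP (pH 7) or water for 30 min at 25 C, then a 4 min trypsin pulse at 22 C. Peptides were quantified by DIA-MS (4 replicates). Value is the peptide log2 fold change (treated/control); negative = stabilized. Scale: negative = ligand-stabilized region.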
Regarding “UniProt P45551 (peptide sequence: SEQGTMAMTHMASALMR, peptide start residue: 39)”, the log2 fold change came to 0.394.

Regarding “UniProt P45769 (peptide sequence: CINHLEEHQQGR, peptide start residue: 57)”, the log2 fold change is -0.177. Regarding “UniProt P45544 (peptide sequence: AISDLVADGVLIR, peptide start residue: 55)”, the log2 fold change was -0.218. For “UniProt P52627 (peptide sequence: KYQHYQR, peptide start residue: 158)” the value was -1.41. Then “UniProt P45756 (peptide sequence: ILDDLQR, peptide start residue: 114)”, with 0.329; and “UniProt P52613 (peptide sequence: LQAWQTLQER, peptide start residue: 108)”, with -0.354. For “UniProt P45800 (peptide sequence: KLTPEER, peptide start residue: 44)” the value was 0.402; for “UniProt P54746 (peptide sequence: KRLDSYFDVLEK, peptide start residue: 197)”, -0.598. On to “UniProt P52130 (peptide sequence: IIDEQDVPTHILSK, peptide start residue: 80)”, for which the log2 fold change is 0.697. Turning to “UniProt P56614 (peptide sequence: GGSGNFAEDRER, peptide start residue: 6)”, the log2 fold change was -0.00918. “UniProt P56256 (peptide sequence: ALQCMDVEKVQR, peptide start residue: 138)”: the log2 fold change was -0.407. Turning to “UniProt P39347 (peptide sequence: KLLANGVDPGDKK, peptide start residue: 48)”, the log2 fold change is -1.32.

Turning to “UniProt P42620 (peptide sequence: STGGKFQR, peptide start residue: 18)”, the log2 fold change is 0.465. For “UniProt P52636 (peptide sequence: NAESCIDCGK, peptide start residue: 247)” the value was -0.317; for “UniProt P39409 (peptide sequence: DNQQIKR, peptide start residue: 190)”, -0.63; for “UniProt P52096 (peptide sequence: VDPYTQKR, peptide start residue: 105)”, -0.685. With “UniProt P58035 (peptide sequence: ILVACGTGMSTSTMIAHK, peptide start residue: 4)”, the log2 fold change is -0.218.

As for “UniProt P45469 (peptide sequence: VNAIAAPTR, peptide start residue: 27)”, the log2 fold change was -0.364. For “UniProt P40710 (peptide sequence: VLAPDTAGK, peptide start residue: 216)” the value was -0.311; for “UniProt P66948 (peptide sequence: TLGMYNSGR, peptide start residue: 281)”, 0.205; for “UniProt P50456 (peptide sequence: LIDQLGPVSR, peptide start residue: 24)”, 0.402. Consider “UniProt P46118 (peptide sequence: KIAFFGLGSSAAVAHDAMNK, peptide start residue: 130)”, for which the log2 fold change was found to be 0.483. Then “UniProt P43319 (peptide sequence: VNFGFINGQK, peptide start residue: 232)”, with -0.205. With “UniProt P45463 (peptide sequence: SHIAPAITELMR, peptide start residue: 109)”, the log2 fold change came to 0.418.

For the target “UniProt P42624 (peptide sequence: AYLQSIHGK, peptide start residue: 181)”, the log2 fold change was 0.413. For “UniProt P52097 (peptide sequence: WLAGQNAPMPSR, peptide start residue: 261)”, the log2 fold change was 0.689. Then “UniProt P52052 (peptide sequence: EWLDDDQR, peptide start residue: 50)”, with -0.925. Then “UniProt P46890 (peptide sequence: NAMMEQALETGK, peptide start residue: 78)”, with -0.509; and “UniProt P46854 (peptide sequence: KYGFEIEGTGKK, peptide start residue: 133)”, with 0.398; and “UniProt P39391 (peptide sequence: QSGFSALSLAR, peptide start residue: 185)”, with -0.206. Then “UniProt P63201 (peptide sequence: MYTSESLIK, peptide start residue: 162)”, with 0.344. As for “UniProt P45424 (peptide sequence: ILFGMAGTAR, peptide start residue: 81)”, the log2 fold change was -0.12.
